# Measured values taken from the supplement of paper PMC8728848.
# Some of the results follow.
# B1: Epa21 (Candida glabrata) (protein)
# chain: MGSSHHHHHHSSGLVPRGSHMASTPNIESHPQGCSPVDTSGIKPGLKMDLYRFPITPPGTGCWSWDWLTVTPDFPRSGYWKWPKIAEVDGVVGPLHLDSGHPTCDPLTSVLPHGFNYLQSITTTNFTMVLHGYFVPKQSGKYTFEFKADDALLLNLGAGNAFSCCDYNNSQYNQGEYLAYAIWSKNNQTATLYLEKGIYYPIRVFYHNRCCGAYMDVVYYFNDSPIPNRDFSGLLFSIPDSDSCDANI
# Columns and labels:
# Test in all cases: glycan array binding signal (z-score within array); higher = stronger binding
# Details in all cases: glycan notation: IUPAC condensed, linker removed
# [1] = molecular target: Gal(b1-3)GlcNAc(b1-2)Man(a1-3)[Gal(b1-3)GlcNAc(b1-2)Man(a1-6)]Man(b1-4)GlcNAc(b1-4)GlcNAc
# In short: (§1)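 The binding signal is a Z-score computed within each array and averaged over linkers. Arrays of the same protein sequence at different concentrations or buffers were also averaged together. Data originate from 3228 arrays in the Consortium for Functional Glycomics database, kept only where the protein sequence was available.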
# [2] = molecular target: Gal(b1-3)GlcNAc(b1-2)Man(a1-3)[Gal(b1-3)GlcNAc(b1-2)Man(a1-6)]Man(b1-4)GlcNAc(b1-4)[Fuc(a1-6)]GlcNAc
# In short: as §1
# [3] = molecular target: Gal(b1-3)GlcNAc(b1-2)Man(a1-3)[GlcNAc(b1-4)][Gal(b1-3)GlcNAc(b1-2)Man(a1-6)]Man(b1-4)GlcNAc(b1-4)GlcNAc
# In short: as §1
# [4] = molecular target: Gal(b1-3)GlcNAc(b1-2)[Gal(b1-3)GlcNAc(b1-6)]Man(a1-6)[Gal(b1-3)GlcNAc(b1-2)Man(a1-3)]Man(b1-4)GlcNAc(b1-4)GlcNAc
# In short: as §1
# [5] = molecular target: Gal(b1-3)GlcNAc(b1-3)Gal(b1-3)GlcNAc
# In short: as §1
# [6] = molecular target: Gal(b1-3)GlcNAc(b1-3)Gal(b1-4)Glc
# In short: as §1
# [7] = molecular target: Gal(b1-3)GlcNAc(b1-3)Gal(b1-4)GlcNAc
# In short: as §1
# [8] = molecular target: Gal(b1-3)GlcNAc(b1-3)Gal(b1-4)GlcNAc(b1-2)Man(a1-3)[Gal(b1-3)GlcNAc(b1-3)Gal(b1-4)GlcNAc(b1-2)Man(a1-6)]Man(b1-4)GlcNAc(b1-4)GlcNAc
# In short: as §1
# [9] = molecular target: Gal(b1-3)GlcNAc(b1-3)Gal(b1-4)GlcNAc(b1-2)[Gal(b1-3)GlcNAc(b1-3)Gal(b1-4)GlcNAc(b1-6)]Man(a1-6)[Gal(b1-3)GlcNAc(b1-3)Gal(b1-4)GlcNAc(b1-2)Man(a1-3)]Man(b1-4)GlcNAc(b1-4)[Fuc(a1-6)]GlcNAc
# In short: as §1
# [10] = molecular target: Gal(b1-3)GlcNAc(b1-3)Gal(b1-4)GlcNAc(b1-3)Gal(b1-4)GlcNAc(b1-2)[Gal(b1-3)GlcNAc(b1-3)Gal(b1-4)GlcNAc(b1-3)Gal(b1-4)GlcNAc(b1-6)]Man(a1-6)[Gal(b1-3)GlcNAc(b1-3)Gal(b1-4)GlcNAc(b1-3)Gal(b1-4)GlcNAc(b1-2)Man(a1-3)]Man(b1-4)GlcNAc(b1-4)[Fuc(a1-6)]GlcNAc
# In short: as §1
# [11] = molecular target: Gal(b1-3)GlcNAc(b1-3)Gal(b1-4)GlcNAc(b1-6)[Gal(b1-3)GlcNAc(b1-3)]Gal(b1-4)Glc
# In short: as §1
# [12] = molecular target: Gal(b1-3)GlcNAc(b1-3)Gal(b1-4)[Fuc(a1-3)]GlcNAc
# In short: as §1
# [13] = molecular target: Gal(b1-3)GlcNAc(b1-3)Gal(b1-4)[Fuc(a1-3)]GlcNAc(b1-6)[Gal(b1-3)GlcNAc(b1-3)]Gal(b1-4)Glc
# In short: as §1
# [14] = molecular target: Gal(b1-3)GlcNAc(b1-3)GalNAc
# In short: as §1
# [15] = molecular target: Gal(b1-3)GlcNAc(b1-6)Gal(b1-4)GlcNAc
# In short: as §1
# [16] = molecular target: Gal(b1-3)GlcNAc(b1-6)GalNAc
# In short: as §1
# [17] = molecular target: Gal(b1-3)GlcNAc(b1-6)[Gal(b1-3)]GalNAc
# In short: as §1
# Gal(b1-3)GlcNAc6S = molecular target: Gal(b1-3)GlcNAc6S
# In short: as §1
# [18] = molecular target: Gal(b1-3)[Fuc(a1-4)]GlcNAc
# In short: as §1
# [19] = molecular target: Gal(b1-3)[Fuc(a1-4)]GlcNAc(b1-2)Man
# In short: as §1
# [20] = molecular target: Gal(b1-3)[Fuc(a1-4)]GlcNAc(b1-2)Man(a1-3)[Gal(b1-3)[Fuc(a1-4)]GlcNAc(b1-2)Man(a1-6)]Man(b1-4)GlcNAc(b1-4)[Fuc(a1-6)]GlcNAc
# In short: as §1
# [21] = molecular target: Gal(b1-3)[Fuc(a1-4)]GlcNAc(b1-3)Gal(b1-3)[Fuc(a1-4)]GlcNAc
# In short: as §1
# [22] = molecular target: Gal(b1-3)[Fuc(a1-4)]GlcNAc(b1-3)Gal(b1-4)[Fuc(a1-3)]GlcNAc
# In short: as §1
# [23] = molecular target: Gal(b1-3)[Fuc(a1-4)]GlcNAc(b1-6)GalNAc
# In short: as §1
# [24] = molecular target: Gal(b1-3)[GlcNAc(b1-6)]GalNAc
# In short: as §1
# [25] = molecular target: Gal(b1-3)[Neu5Ac(a2-6)]GalNAc
# In short: as §1
# [26] = molecular target: Gal(b1-3)[Neu5Ac(a2-6)]GlcNAc(b1-4)Gal(b1-4)Glc
# In short: as §1
# [27] = molecular target: Gal(b1-3)[Neu5Ac(b2-6)]GalNAc
# In short: as §1
# Gal(b1-4)Gal = molecular target: Gal(b1-4)Gal
# In short: as §1
# [28] = molecular target: Gal(b1-4)GalNAc(a1-3)[Fuc(a1-2)]Gal(b1-4)GlcNAc
# In short: as §1
# [29] = molecular target: Gal(b1-4)GalNAc(b1-3)[Fuc(a1-2)]Gal(b1-4)GlcNAc
# In short: as §1
# Gal(b1-4)Glc = molecular target: Gal(b1-4)Glc
# In short: as §1
# Gal(b1-4)Glc6S = molecular target: Gal(b1-4)Glc6S
# In short: as §1
# Gal(b1-4)GlcNAc = molecular target: Gal(b1-4)GlcNAc
# In short: as §1
# [30] = molecular target: Gal(b1-4)GlcNAc(a1-6)Gal(b1-4)GlcNAc
# In short: as §1
# Gal(b1-4)GlcNAc(b1-2)Man = molecular target: Gal(b1-4)GlcNAc(b1-2)Man
# In short: as §1
# [31] = molecular target: Gal(b1-4)GlcNAc(b1-2)Man(a1-3)Man(b1-4)GlcNAc(b1-4)GlcNAc
# In short: as §1
binder,measurement,setting,value
B1,glycan array binding signal (z-score),[1],0.237
same,glycan array binding signal (z-score),[2],-0.353
same,glycan array binding signal (z-score),[3],0.034
same,glycan array binding signal (z-score),[4],-0.362
same,glycan array binding signal (z-score),[5],-0.042
same,glycan array binding signal (z-score),[6],-0.845
same,glycan array binding signal (z-score),[7],-0.56
same,glycan array binding signal (z-score),[8],-1.02
same,glycan array binding signal (z-score),[9],0.46
same,glycan array binding signal (z-score),[10],1.23
same,glycan array binding signal (z-score),[11],-0.072
same,glycan array binding signal (z-score),[12],-0.396
same,glycan array binding signal (z-score),[13],-0.438
same,glycan array binding signal (z-score),[14],-0.317
same,glycan array binding signal (z-score),[15],-0.159
same,glycan array binding signal (z-score),[16],-0.579
same,glycan array binding signal (z-score),[17],0.684
same,glycan array binding signal (z-score),Gal(b1-3)GlcNAc6S,0.091
same,glycan array binding signal (z-score),[18],-0.527
same,glycan array binding signal (z-score),[19],0.139
same,glycan array binding signal (z-score),[20],0.293
same,glycan array binding signal (z-score),[21],-0.249
same,glycan array binding signal (z-score),[22],-0.59
same,glycan array binding signal (z-score),[23],1.42
same,glycan array binding signal (z-score),[24],-0.376
same,glycan array binding signal (z-score),[25],-0.119
same,glycan array binding signal (z-score),[26],-0.341
same,glycan array binding signal (z-score),[27],-0.153
same,glycan array binding signal (z-score),Gal(b1-4)Gal,-0.452
same,glycan array binding signal (z-score),[28],-1.08
same,glycan array binding signal (z-score),[29],-1.1
same,glycan array binding signal (z-score),Gal(b1-4)Glc,-0.686
same,glycan array binding signal (z-score),Gal(b1-4)Glc6S,1.12
same,glycan array binding signal (z-score),Gal(b1-4)GlcNAc,-0.494
same,glycan array binding signal (z-score),[30],-0.351
same,glycan array binding signal (z-score),Gal(b1-4)GlcNAc(b1-2)Man,0.682
same,glycan array binding signal (z-score),[31],-0.399

# Part of the list above, as tab-separated lines:
binder	measurement	setting	value
B1	glycan array binding signal (z-score)	[22]	-0.59
same	glycan array binding signal (z-score)	Gal(b1-4)Gal	-0.452
